{
  "sequences": {"note": "By UniProt entry, the sequences of proteins in these tests, tags left out.", "UniProt Q92830, whole entry, looked up": "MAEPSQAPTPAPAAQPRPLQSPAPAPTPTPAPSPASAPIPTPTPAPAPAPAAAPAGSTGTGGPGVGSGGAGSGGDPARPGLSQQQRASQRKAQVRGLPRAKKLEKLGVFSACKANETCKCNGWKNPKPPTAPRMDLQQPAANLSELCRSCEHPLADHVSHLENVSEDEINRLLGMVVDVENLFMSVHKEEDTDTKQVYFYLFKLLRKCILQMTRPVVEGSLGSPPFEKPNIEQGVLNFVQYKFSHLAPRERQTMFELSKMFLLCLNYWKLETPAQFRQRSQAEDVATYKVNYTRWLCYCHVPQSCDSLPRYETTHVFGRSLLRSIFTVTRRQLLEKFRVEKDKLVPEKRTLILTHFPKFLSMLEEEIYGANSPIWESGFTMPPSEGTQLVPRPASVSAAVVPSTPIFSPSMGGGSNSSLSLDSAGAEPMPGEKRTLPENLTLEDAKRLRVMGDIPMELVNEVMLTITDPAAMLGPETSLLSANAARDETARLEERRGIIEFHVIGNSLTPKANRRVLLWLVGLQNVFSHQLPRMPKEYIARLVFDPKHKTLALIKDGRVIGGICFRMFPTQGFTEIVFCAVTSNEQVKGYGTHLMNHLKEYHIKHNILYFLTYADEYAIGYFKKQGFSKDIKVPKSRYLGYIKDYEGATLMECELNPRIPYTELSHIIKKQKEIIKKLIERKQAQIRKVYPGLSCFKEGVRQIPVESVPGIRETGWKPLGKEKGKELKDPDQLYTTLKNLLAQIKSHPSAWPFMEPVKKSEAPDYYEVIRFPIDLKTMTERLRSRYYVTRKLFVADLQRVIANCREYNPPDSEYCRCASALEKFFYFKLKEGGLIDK"},
  "source": "PubChem BioAssay AID504327",
  "about": "(National Center for Advancing Translational Sciences (NCATS), 2011)",
  "note": "Values joined by “and” are separate entries in the source; they are usually repeats but may differ in a detail not shown here. Identical values can stand only once. In all, about 390,000 compounds went through this assay and about 820 (0.21%) were called active. The shares of active, inactive and inconclusive entries below differ from those in the screen. The call rests on the fitted dose curve; in most records, active means well fitted inhibition curve with a large enough effect; inconclusive means small, poorly fitted or top-dose-only effect, or another doubt; inactive means no such curve, though single readings can be large or run the other way. Where the call is inconclusive, the potency comes from a doubtful curve fit. On the % scale 0 is the no-effect control and ±100 the full control effect; potency means the concentration at half of the fitted maximal effect.",
  "data": [
    {"target": "Histone acetyltransferase KAT2A (Homo sapiens) (UniProt Q92830)", "experiment": "qHTS Assay for Inhibitors of GCN5L2", "conditions": "GCN5L2 HAT assay, ThioGlo1 CoA-SH fluorescence; activity change, negative = inhibition: at 58.9 µM (top of the series) unless noted", "how_it_was_run": "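Titration-based screen in which CoA formation is detected via maleimide probe ThioGlo1 (50uM) turning fluorescent on thiol reaction; substrates H3(1-25) 75uM and acetyl-CoA 70uM, GCN5L2 20nM, 20 min incubation at room temperature.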", "values": [
      {"smiles": "CCC1CCCCN1CCCNC(=O)Cn1ncc2c(C)n(Cc3ccccc3Cl)c(C)c2c1=O", "note": "(centres undefined)", "Potency": "inactive"},
      {"smiles": "CCn1cc(CNC(=O)c2ccc(OC3CCN(Cc4ccccn4)CC3)cc2)cn1", "Potency": "inconclusive: 0.112 µM [inhibitor, full curve, poor fit]"},
      {"smiles": "Cc1[nH]c(=O)cc2ccccc12", "Potency": "inactive"},
      {"smiles": "CCn1c(SCC(=O)Nc2nccs2)nnc1-c1ccccn1", "Potency": "inconclusive: 0.126 µM [inhibitor, full curve, poor fit]"},
      {"smiles": "COc1cccc2c1C(=O)c1ccc3ccccc3c1C2=O", "activity change, negative = inhibition": "inactive: -18.2% [at 0.501 µM]"},
      {"smiles": "COC(=O)c1sc2ccccc2c1-n1cccc1C(=O)C(=O)Nc1ccc(OC)cc1", "Potency": "inconclusive: 39.8 µM [inhibitor, single point]"},
      {"smiles": "CCOCCCN(C)C1CCN(C(=O)c2oc3ccccc3c2NC(=O)Cc2ccc(F)cc2)CC1", "Potency": "inactive"},
      {"smiles": "COc1ccc2[nH]cc(CCNc3cc(-c4ccc5c(c4)OCO5)ncn3)c2c1", "Potency": "inconclusive: 39.8 µM [inhibitor, single point]"},
      {"smiles": "CCCCn1c(C2CC(=O)N(c3ccc(OCC)cc3)C2)nc2ccccc21", "note": "(centres undefined)", "Potency": "inactive"},
      {"smiles": "COc1ccc(C2=CC(c3ccco3)n3ncnc3N2)cc1", "note": "(centres undefined)", "Potency": "inconclusive: 39.8 µM [inhibitor, single point]"},
      {"smiles": "CN(C)S(=O)(=O)c1cccc(NC(=O)COC(=O)CNC(=O)c2ccccc2F)c1", "Potency": "inactive"},
      {"smiles": "Fc1ccccc1N1CCN(C2CCN(Cc3c[nH]c4ccccc34)CC2)CC1", "Potency": "inactive"},
      {"smiles": "Cc1ccc(C)c(N2CCN(C(=O)c3cc(C)nc4c3c(C)nn4-c3cccc(F)c3)CC2)c1", "Potency": "inactive"},
      {"smiles": "CSc1ncc(CN2CCc3c([nH]c4ccccc34)C2c2cccc(O)c2)cn1", "note": "(centres undefined)", "Potency": "inactive"},
      {"smiles": "CCOc1ccc2nc(NC(=O)CSc3nc(-c4ccccc4)c(C#N)c(=O)[nH]3)sc2c1", "Potency": "inconclusive: 31.6 µM [inhibitor, single point]"},
      {"smiles": "CC(C(=O)O)n1c2ccccc2c2cn[nH]c(=O)c21", "note": "(centres undefined)", "Potency": "inconclusive: 0.1 µM [inhibitor, full curve, poor fit]"},
      {"smiles": "C[C@@H](NC(=O)C1(c2ccccc2)CCN(C(=O)OC(C)(C)C)CC1)C(=O)N[C@@H](Cc1ccccc1)C(=O)O", "Potency": "inconclusive: 15.8 µM [inhibitor, partial curve]"},
      {"smiles": "O=C(CSc1nc2ccsc2c(=O)n1CC1CCC(C(=O)O)CC1)c1ccc(Cl)cc1", "note": "(centres undefined)", "Potency": "inactive"},
      {"smiles": "CCOc1ccc(NC(=O)c2cccc3c2C(=O)N(CC2CCCO2)C3)cc1", "note": "(centres undefined)", "Potency": "inconclusive: 7.08 µM [inhibitor, single point]"},
      {"smiles": "Cc1ccc(C(=O)O/N=C(\\N)Cc2cccs2)cc1[N+](=O)[O-]", "Potency": "inconclusive: 39.8 µM [inhibitor, single point]"},
      {"smiles": "COC(=O)C1=C(C)NC(C)=C(C(=O)OCCN(C)Cc2ccccc2)C1c1cccc([N+](=O)[O-])c1", "note": "(centres undefined)", "Potency": "inconclusive: 28.2 µM [inhibitor, single point]"},
      {"smiles": "C=CCn1c(SCC(=O)Nc2nccs2)nnc1-c1ccco1", "Potency": "inconclusive: 3.16 µM [inhibitor, full curve]"},
      {"smiles": "Cc1cc(C)cc(OCC(=O)NC2CCCc3ccccc32)c1", "note": "(centres undefined)", "Potency": "inconclusive: 10 µM [inhibitor, partial curve, poor fit]"},
      {"smiles": "O=C(Nn1cnnc1)c1ccccc1F", "Potency": "inconclusive: 7.08 µM [inhibitor, single point]"},
      {"smiles": "CCn1c(=O)c([N+](=O)[O-])c(NCCCn2ccnc2)c2ccccc21", "Potency": "inactive"},
      {"smiles": "Cc1ccc(N2C(=O)CSC2c2cccnc2)cc1F", "note": "(centres undefined)", "Potency": "inconclusive: 39.8 µM [inhibitor, single point]"},
      {"smiles": "CC(=O)Oc1ccc(-c2ccc(C(=O)Nc3cccc(S(=O)(=O)N4CCOCC4)c3)cc2)cc1", "Potency": "inactive"},
      {"smiles": "CCC(C)(C)NC(=O)C(c1cccc(OC)c1)N(C(=O)CNC(=O)c1cccs1)c1cccnc1", "note": "(centres undefined)", "Potency": "inactive"},
      {"smiles": "Cc1ccc(-c2ccnc(=S)[nH]2)cc1", "Potency": "inconclusive: 28.2 µM [inhibitor, single point]"},
      {"smiles": "Cc1cc(C)c2c(-n3cccc3)c(C(=O)NNS(=O)(=O)c3ccc(Br)cc3)sc2n1", "Potency": "inconclusive: 7.08 µM [inhibitor, single point]"},
      {"smiles": "COc1ccc(CCn2c(=N)c(C(=O)NC3CCCCC3)cc3c(=O)n4ccccc4nc32)cc1", "Potency": "inconclusive: 2 µM [inhibitor, full curve, poor fit]"},
      {"smiles": "Nc1ncnc2oc(-c3ccco3)c(-c3ccco3)c12", "Potency": "inconclusive: 39.8 µM [inhibitor, single point]"},
      {"smiles": "COc1cc2[nH]c(=S)nc(NCC3CCCO3)c2cc1OC", "note": "(centres undefined)", "Potency": "inconclusive: 12.6 µM [inhibitor, partial curve, poor fit]"},
      {"smiles": "COc1ccc(-c2cc3ccc(O)c(CN4CCC(C)CC4)c3oc2=O)cc1", "Potency": "active: 28.2 µM"},
      {"smiles": "O=C(Nc1ccc(O)cc1)c1cc2ccccc2c(=O)s1", "Potency": "inconclusive: 7.94 µM [inhibitor, full curve, poor fit]"},
      {"smiles": "NC(CC(=O)NC(c1ccccc1)(c1ccccc1)c1ccccc1)C(=O)O", "note": "(centres undefined)", "Potency": "inactive"},
      {"smiles": "Cc1nn(C)c2c1c(C(F)(F)F)cc(=O)n2CC(=O)NCCC(C)C", "Potency": "inactive"},
      {"smiles": "CCOC(=O)C1=C(C)OC(N)=C(C#N)C1c1c(C)nn(-c2ccccc2)c1Cl", "note": "(centres undefined)", "Potency": "inconclusive: 11.2 µM [inhibitor, partial curve]"},
      {"smiles": "Nc1ccc2c(c1Cl)C(=O)c1ccc(N)c(Cl)c1C2=O", "Potency": "inconclusive: 20 µM [inhibitor, single point]"},
      {"smiles": "CC(C)COP(=O)(OCC(C)C)C(Nc1ccccc1)c1ccc2c(c1)OCO2", "note": "(centres undefined)", "Potency": "inconclusive: 0.708 µM [inhibitor, single point]"},
      {"smiles": "O=C(Nc1ccccc1C(=O)NCCCN1CCOCC1)c1ccc(F)cc1F", "Potency": "inconclusive: 4.47 µM [inhibitor, single point]"},
      {"smiles": "CN1CCN(c2c(F)cc3c(=O)c(C(=O)O)cn4c3c2SCC4)CC1", "Potency": "inconclusive: 22.4 µM [inhibitor, single point]"},
      {"smiles": "CCOC(=O)CSc1nnc(NCC(=O)OC(C)C)c(=O)[nH]1", "Potency": "inactive"},
      {"smiles": "COc1cc(/C=N/Nc2nc3ccccc3s2)ccc1OC(=O)c1ccccc1F", "Potency": "inactive"},
      {"smiles": "Cc1ccc(NC(=O)CSc2ncc(S(=O)(=O)c3ccc(C(C)C)cc3)c(=O)[nH]2)cc1C", "Potency": "inconclusive: 39.8 µM [inhibitor, single point]"},
      {"smiles": "COCCn1c(SCC(=O)Nc2cccc(NC(C)=O)c2)nc2c([nH]c3ccccc32)c1=O", "Potency": "inconclusive: 2.82 µM [inhibitor, full curve, poor fit]"},
      {"smiles": "c1coc(CNc2nc(-c3cccs3)cs2)c1", "Potency": "inconclusive: 14.1 µM [inhibitor, partial curve]"},
      {"smiles": "Cc1ccccc1NC(=O)NCCCN1CCN(c2ccccc2F)CC1", "Potency": "inactive"},
      {"smiles": "COc1cc(C(=O)OCC(=O)N2CCCC2=O)cc(OC)c1C", "Potency": "inactive"},
      {"smiles": "CC1(C(=O)N2CCN(C(=O)c3ccco3)CC2)CC1(Br)Br", "note": "(centres undefined)", "Potency": "active: 6.31 µM"},
      {"smiles": "CC(C)c1ccc(NC(=O)c2ccccc2NC(=O)C2CCCCC2C(=O)O)cc1", "note": "(centres undefined)", "Potency": "inconclusive: 0.126 µM [inhibitor, full curve, poor fit]"},
      {"smiles": "CC1CCN(c2ccc(NC(=S)NC(=O)c3ccc(-c4cccc([N+](=O)[O-])c4)o3)cc2)CC1", "Potency": "inconclusive: 28.2 µM [inhibitor, partial curve]"},
      {"smiles": "O=C(Cc1ccccc1)Nc1ccccc1C(=O)N1CCCCC1", "Potency": "inconclusive: 3.98 µM [inhibitor, single point]"},
      {"smiles": "CC(=O)Nc1ccc(NC(=O)c2cc(C)nn2-c2ccccc2)cc1", "Potency": "inconclusive: 11.2 µM [inhibitor, partial curve]"},
      {"smiles": "COCCOC(=O)C1=C(C)OC(N)=C(C#N)C1c1ccc2c(c1)OCO2", "note": "(centres undefined)", "Potency": "inconclusive: 28.2 µM [inhibitor, single point]"},
      {"smiles": "CCOc1ccc(CNC(=O)c2ccc3nc(CC)c(CC)nc3c2)cc1", "Potency": "inactive"},
      {"smiles": "Cc1ccc(C2=NOC(=O)/C2=C\\c2ccc(C)o2)cc1", "Potency": "inconclusive: 20 µM [inhibitor, partial curve]"},
      {"smiles": "CC1(C)CCC(C)(C)c2cc(C(=O)Nc3ccc(C(=O)O)cc3)ccc21", "Potency": "inconclusive: 35.5 µM [inhibitor, single point] and inconclusive: 25.1 µM [inhibitor, single point]"},
      {"smiles": "O=C(CN1CCCC1)Nc1ccc(OC(F)(F)F)cc1", "Potency": "inactive"},
      {"smiles": "O=S(=O)(Nc1ncccn1)c1ccc(NC(=S)Nc2cccc(Cl)c2)cc1", "Potency": "inactive"},
      {"smiles": "N[C@H](CCC(=O)NCC(=O)O)C(=O)O", "Potency": "inactive"},
      {"smiles": "Cc1ccc(C2/C(=C(/O)c3ccccc3)C(=O)C(=O)N2CCN2CCOCC2)o1", "note": "(centres undefined)", "Potency": "inconclusive: 12.6 µM [inhibitor, single point]"},
      {"smiles": "Cc1cc(C(F)F)n2nc(C(=O)Nc3ccc(C(C)C)cc3)nc2n1", "Potency": "inactive"},
      {"smiles": "CCCCSc1nc(N)c(C#N)c(-c2cccs2)c1C#N", "Potency": "inconclusive: 1.58 µM [inhibitor, full curve, poor fit]"},
      {"smiles": "O=C(NCC(c1ccco1)N1CCCC1)c1sc2ccccc2c1Cl", "note": "(centres undefined)", "Potency": "inconclusive: 0.398 µM [inhibitor, full curve]"},
      {"smiles": "CCOC(=O)c1[nH]cnc1C(=O)NCc1ccccc1", "Potency": "inconclusive: 39.8 µM [inhibitor, single point]"},
      {"smiles": "COC(=O)C1=C(O)/C(=C\\c2ccc(CNC(=O)C(=O)Nc3ccc(C)cc3)o2)N=C1C", "Potency": "inconclusive: 25.1 µM [inhibitor, partial curve, poor fit]"},
      {"smiles": "Cc1cc2c(cc1S(=O)(=O)N1CCN(c3cccc(C)c3C)CC1)OCC(=O)N2", "Potency": "inconclusive: 1 µM [inhibitor, single point]"},
      {"smiles": "CCOc1ccc(C(=O)Nc2ccccc2CC)cc1[N+](=O)[O-]", "Potency": "inactive"}
    ]}
  ]
}
